# Results published in the supplement of paper PMC10849652.
# Sequences of proteins named here, by UniProt entry; tags and fusion partners are left off. A change or cut given only in a name is not applied to a line headed by its entry.
# UniProt P47974: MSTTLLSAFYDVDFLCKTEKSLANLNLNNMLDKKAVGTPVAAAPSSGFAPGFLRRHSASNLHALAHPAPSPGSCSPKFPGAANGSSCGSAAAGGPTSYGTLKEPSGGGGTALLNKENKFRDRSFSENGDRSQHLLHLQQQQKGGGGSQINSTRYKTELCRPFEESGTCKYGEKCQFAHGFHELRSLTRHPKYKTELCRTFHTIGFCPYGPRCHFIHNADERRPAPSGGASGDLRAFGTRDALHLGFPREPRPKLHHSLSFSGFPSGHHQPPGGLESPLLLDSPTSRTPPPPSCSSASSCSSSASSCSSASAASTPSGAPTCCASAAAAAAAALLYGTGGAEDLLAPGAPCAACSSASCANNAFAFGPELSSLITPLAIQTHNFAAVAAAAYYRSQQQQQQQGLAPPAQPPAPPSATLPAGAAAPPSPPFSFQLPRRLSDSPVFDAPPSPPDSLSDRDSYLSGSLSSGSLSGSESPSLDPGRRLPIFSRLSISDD
# UniProt P18887, whole entry, looked up: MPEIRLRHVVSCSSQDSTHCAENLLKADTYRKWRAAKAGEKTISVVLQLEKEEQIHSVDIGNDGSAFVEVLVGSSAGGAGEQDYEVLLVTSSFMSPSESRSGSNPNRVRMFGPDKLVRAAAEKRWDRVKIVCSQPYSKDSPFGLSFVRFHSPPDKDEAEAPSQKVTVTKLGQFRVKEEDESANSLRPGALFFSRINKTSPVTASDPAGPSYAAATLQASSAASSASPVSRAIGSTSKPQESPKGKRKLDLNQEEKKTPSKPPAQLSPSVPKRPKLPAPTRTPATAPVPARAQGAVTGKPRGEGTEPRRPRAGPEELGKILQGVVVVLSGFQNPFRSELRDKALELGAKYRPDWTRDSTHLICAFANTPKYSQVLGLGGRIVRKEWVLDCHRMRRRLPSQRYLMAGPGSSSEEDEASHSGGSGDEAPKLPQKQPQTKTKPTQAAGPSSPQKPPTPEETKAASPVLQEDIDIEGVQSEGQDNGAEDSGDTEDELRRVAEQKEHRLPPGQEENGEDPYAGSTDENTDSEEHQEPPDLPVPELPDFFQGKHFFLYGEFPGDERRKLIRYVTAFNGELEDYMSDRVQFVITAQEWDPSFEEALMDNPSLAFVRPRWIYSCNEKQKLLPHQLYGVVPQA
# UniProt O14980, whole entry, looked up: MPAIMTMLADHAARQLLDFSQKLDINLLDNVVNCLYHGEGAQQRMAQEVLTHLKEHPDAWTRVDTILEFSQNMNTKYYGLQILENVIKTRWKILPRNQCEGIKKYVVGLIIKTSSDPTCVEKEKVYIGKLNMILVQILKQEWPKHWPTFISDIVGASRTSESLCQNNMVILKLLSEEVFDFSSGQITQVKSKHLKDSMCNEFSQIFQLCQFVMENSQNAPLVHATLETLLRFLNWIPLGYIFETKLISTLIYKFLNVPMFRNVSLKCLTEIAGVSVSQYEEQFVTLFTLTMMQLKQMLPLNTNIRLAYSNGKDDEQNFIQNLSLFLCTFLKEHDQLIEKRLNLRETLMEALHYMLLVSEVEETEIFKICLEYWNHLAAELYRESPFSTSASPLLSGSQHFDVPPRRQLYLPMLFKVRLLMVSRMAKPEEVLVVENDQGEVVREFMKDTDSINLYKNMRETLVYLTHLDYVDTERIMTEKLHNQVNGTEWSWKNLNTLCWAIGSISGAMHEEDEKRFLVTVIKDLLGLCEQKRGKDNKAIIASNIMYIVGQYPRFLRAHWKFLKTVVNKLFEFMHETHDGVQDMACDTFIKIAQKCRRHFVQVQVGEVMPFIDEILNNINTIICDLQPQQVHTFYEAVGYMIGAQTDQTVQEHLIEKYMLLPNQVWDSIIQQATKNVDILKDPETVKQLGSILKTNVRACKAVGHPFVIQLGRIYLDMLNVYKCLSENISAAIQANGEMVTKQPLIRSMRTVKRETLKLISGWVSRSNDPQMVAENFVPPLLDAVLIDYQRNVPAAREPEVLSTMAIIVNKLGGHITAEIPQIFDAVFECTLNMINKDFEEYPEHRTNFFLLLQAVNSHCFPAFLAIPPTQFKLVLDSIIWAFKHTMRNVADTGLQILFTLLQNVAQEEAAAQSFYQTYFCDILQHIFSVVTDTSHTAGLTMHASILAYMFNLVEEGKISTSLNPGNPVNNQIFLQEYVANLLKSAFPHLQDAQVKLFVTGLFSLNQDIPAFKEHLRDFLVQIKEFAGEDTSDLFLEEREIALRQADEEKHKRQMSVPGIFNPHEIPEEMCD
# UniProt Q96K21: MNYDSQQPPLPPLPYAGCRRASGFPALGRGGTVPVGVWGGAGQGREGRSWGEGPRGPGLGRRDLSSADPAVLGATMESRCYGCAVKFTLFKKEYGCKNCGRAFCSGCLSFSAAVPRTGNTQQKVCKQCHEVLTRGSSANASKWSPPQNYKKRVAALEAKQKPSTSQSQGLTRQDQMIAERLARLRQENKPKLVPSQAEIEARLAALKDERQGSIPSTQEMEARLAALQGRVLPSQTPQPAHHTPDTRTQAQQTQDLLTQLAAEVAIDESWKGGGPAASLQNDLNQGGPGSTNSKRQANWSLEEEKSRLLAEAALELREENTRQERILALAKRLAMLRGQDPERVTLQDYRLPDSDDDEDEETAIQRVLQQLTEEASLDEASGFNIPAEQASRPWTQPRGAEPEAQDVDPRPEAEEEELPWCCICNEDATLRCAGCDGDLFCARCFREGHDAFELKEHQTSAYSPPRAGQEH
# UniProt Q9BQ24: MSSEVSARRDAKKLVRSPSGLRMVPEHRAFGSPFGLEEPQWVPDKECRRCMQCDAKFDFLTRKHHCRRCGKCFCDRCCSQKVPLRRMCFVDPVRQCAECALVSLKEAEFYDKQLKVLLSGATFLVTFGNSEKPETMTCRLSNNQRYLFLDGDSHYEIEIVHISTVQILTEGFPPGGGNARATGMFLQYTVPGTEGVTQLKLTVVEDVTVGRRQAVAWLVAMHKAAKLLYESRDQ
# UniProt Q9Y5A9: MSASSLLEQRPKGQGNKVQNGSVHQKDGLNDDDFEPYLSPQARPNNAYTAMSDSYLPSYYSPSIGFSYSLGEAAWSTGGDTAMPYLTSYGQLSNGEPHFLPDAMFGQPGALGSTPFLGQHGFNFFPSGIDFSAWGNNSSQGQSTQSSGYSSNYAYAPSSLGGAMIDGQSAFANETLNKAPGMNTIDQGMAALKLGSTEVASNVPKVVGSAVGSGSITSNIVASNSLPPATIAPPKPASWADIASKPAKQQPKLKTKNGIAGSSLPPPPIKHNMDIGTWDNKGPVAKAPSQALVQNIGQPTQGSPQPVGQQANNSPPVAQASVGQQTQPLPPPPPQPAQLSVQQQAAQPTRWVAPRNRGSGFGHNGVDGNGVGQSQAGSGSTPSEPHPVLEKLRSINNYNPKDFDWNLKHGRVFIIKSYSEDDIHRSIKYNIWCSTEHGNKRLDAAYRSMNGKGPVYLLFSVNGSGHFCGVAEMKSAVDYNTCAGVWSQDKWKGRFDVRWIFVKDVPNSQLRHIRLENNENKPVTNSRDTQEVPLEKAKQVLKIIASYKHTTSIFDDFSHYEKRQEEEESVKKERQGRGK
# UniProt Q96KR1: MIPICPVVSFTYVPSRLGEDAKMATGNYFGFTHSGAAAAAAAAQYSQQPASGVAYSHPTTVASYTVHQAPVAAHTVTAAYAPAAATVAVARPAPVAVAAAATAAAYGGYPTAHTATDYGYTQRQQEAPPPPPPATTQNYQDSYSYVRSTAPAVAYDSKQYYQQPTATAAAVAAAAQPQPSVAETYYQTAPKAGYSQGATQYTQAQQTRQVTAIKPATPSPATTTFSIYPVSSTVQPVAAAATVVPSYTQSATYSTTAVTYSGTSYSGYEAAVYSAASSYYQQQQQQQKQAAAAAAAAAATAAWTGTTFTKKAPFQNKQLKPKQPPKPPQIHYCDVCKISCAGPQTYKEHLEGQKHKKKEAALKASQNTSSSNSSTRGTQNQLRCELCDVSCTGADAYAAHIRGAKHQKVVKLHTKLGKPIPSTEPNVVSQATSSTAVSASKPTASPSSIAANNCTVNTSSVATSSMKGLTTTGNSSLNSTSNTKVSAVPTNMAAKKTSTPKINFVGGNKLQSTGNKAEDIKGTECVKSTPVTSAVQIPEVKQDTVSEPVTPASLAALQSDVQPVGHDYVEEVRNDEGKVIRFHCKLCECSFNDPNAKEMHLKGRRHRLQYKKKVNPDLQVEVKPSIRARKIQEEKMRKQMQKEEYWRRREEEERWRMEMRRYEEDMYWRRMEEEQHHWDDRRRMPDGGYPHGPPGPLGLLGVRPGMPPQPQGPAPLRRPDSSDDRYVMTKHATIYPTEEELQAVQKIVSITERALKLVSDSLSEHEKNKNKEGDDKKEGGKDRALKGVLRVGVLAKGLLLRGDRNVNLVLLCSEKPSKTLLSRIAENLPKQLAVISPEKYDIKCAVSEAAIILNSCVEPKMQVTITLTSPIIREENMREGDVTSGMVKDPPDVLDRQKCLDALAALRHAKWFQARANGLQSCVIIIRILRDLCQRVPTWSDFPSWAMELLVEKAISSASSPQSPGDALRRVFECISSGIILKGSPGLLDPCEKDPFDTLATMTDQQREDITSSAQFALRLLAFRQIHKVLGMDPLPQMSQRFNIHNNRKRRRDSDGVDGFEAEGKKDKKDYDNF
# UniProt Q5W0Z9: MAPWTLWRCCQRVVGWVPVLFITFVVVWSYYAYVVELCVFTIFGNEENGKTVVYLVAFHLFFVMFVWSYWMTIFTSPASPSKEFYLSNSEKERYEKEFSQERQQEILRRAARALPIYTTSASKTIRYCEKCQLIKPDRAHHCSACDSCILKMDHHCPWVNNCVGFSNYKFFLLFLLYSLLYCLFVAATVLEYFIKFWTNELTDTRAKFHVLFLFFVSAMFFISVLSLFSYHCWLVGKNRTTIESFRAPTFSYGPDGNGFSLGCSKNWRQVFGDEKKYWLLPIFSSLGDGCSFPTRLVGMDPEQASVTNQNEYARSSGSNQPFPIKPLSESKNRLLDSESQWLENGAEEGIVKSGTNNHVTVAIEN
# UniProt Q86WB0: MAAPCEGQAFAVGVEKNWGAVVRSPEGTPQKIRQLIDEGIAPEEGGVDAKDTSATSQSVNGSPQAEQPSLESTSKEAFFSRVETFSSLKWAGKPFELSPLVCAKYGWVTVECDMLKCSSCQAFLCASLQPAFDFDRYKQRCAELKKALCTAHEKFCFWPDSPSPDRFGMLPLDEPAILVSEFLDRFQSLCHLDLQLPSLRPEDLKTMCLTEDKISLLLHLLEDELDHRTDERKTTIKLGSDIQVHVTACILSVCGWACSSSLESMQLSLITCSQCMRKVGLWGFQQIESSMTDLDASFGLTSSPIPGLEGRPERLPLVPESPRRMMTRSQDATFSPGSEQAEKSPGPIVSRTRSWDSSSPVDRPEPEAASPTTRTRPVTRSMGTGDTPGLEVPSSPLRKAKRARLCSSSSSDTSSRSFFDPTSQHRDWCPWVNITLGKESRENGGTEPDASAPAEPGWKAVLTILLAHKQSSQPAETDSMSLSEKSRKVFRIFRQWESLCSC
# UniProt Q96DT7: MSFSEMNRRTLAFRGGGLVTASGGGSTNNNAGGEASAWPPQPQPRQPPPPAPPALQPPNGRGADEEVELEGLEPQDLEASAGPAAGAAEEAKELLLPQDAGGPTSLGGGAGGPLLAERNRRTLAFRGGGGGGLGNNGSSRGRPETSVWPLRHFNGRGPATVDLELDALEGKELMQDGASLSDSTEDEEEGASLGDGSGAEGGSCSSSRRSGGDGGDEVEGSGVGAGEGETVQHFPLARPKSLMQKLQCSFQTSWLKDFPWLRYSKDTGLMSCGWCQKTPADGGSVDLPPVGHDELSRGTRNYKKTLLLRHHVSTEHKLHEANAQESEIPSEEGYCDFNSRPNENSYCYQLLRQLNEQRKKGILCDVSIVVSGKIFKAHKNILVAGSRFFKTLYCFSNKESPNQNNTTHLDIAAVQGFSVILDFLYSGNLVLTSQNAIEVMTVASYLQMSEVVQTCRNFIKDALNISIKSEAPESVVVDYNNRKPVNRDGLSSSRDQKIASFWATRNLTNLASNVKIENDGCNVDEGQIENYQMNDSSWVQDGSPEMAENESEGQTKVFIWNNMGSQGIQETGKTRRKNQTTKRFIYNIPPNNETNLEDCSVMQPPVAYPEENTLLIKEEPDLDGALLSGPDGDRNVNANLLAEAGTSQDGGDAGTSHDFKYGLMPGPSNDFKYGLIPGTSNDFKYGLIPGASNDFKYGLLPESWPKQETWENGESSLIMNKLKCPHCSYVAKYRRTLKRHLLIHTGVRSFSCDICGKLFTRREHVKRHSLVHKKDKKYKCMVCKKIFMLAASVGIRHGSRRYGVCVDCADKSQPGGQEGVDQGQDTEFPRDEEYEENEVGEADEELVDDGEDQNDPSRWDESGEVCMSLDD
# UniProt Q96EC8: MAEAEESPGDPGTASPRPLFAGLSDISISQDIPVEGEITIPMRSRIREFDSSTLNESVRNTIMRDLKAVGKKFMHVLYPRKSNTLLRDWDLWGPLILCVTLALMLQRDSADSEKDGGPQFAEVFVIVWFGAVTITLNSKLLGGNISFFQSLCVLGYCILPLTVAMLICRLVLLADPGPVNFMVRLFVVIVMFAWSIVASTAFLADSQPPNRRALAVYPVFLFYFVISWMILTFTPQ
# This is one part of the list.
# Compound: C1=CC=C(C=C1)[C@H](COC2=CC3=C(C=C2)NC(=O)N3)NC(=O)C4=CC=CN(C4=O)CC5=CC(=C(C=C5)F)F
# Assay: log2 fold change, soluble protein after heating vs DMSO (PISA); higher = thermal stabilisation; K562 lysate, 10 uM; active = over 0.2 and 3.5 SD of the protein, either way, in both replicates (recomputed)
# Method in brief: (§1)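 Following dounce homogenisation of K562 pellets in PBS pH 7.4 with 1 mM MgCl2, crude extract at 1 mg/mL protein was incubated for 30 min with 10 μM compound. Aliquots were then heated for 3 min over 48°C-58°C and pooled, NP-40 was added to 0.5% at 4°C, and soluble protein was recovered as the supernatant at 21,000xg for 90 min. Channel-sum-equalised TMTpro 16plex LC-MS/MS quantified this protein. Each value, from duplicates, is a log-two fold change in thermal stability relative to solvent controls.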
row,Target,log2 fold change
1,ZFP36L2 (UniProt P47974),inactive: 0.025
2,XPNPEP3 (UniProt Q9NQH7),inactive: -0.04
3,XRCC1 (UniProt P18887),inactive: 0.039
4,YAE1 (UniProt Q9NRH1),inactive: 0.079
5,XPO1 (UniProt O14980),inactive: -0.024
6,ZFYVE19 (UniProt Q96K21),inactive: 0.076
7,YIPF4 (UniProt Q9BSR8),inactive: -0.041
8,ZFYVE28 (UniProt Q9HCC9),inactive: 0.05
9,ZC2HC1A (UniProt Q96GY0),inactive: 0.059
10,XPO5 (UniProt Q9HAV4),inactive: -0.046
11,ZFC3H1 (UniProt O60293),inactive: -0.042
12,XRCC6 (UniProt P12956),inactive: -0.013
13,ZFYVE21 isoform 2 (UniProt Q9BQ24),inactive: -0.01
14,YOD1 (UniProt Q5VVQ6),inactive: 0.005
15,YTHDF2 (UniProt Q9Y5A9),inactive: -0.033

# Compound: CC1=C(SC2=C1C(=N[C@H](C3=NN=C(N32)C)CC(=O)N)C4=CC=C(C=C4)Cl)C
# Assay: as above
# Method in brief: as §1
row,Target,log2 fold change
1,YIPF3 (UniProt Q9GZM5),inactive: -0.021
2,ZFR (UniProt Q96KR1),inactive: -0.043
3,ZCCHC10 (UniProt Q8TBK6),inactive: -0.188
4,ZBTB7B isoform 2 (UniProt O15156),inactive: 0.08
5,ZC3H18 (UniProt E7ERS3),inactive: -0.005
6,YTHDC1 (UniProt Q96MU7),inactive: -0.06
7,ZDHHC20 (UniProt Q5W0Z9),inactive: 0.099
8,XPO6 (UniProt Q96QU8),inactive: 0.057
9,ZDHHC3 isoform 2 (UniProt Q9NYG2),inactive: -0.101
10,ZC3HC1 (UniProt Q86WB0),inactive: 0.045
11,ZCCHC3 (UniProt Q9NUD5),inactive: -0.034
12,ZEB1 isoform 2 (UniProt P37275),inactive: -0.056
13,ZBTB21 (UniProt Q9ULJ3),inactive: -0.147
14,ZFAND5 (UniProt O76080),inactive: -0.031
15,YWHAQ (UniProt P27348),inactive: 0.021
16,ZBTB10 (UniProt Q96DT7),inactive: -0.037
17,YIPF6 (UniProt Q96EC8),inactive: 0
18,YES1 (UniProt P07947),inactive: -0.099
19,YPEL5 (UniProt P62699),inactive: -0.007

row,Target,log2 fold change
1,XXYLT1 (UniProt Q8NBI6),inactive: 0.033
2,YWHAG (UniProt P61981),inactive: 0.001
3,YBX1 (UniProt P67809),inactive: 0.012
4,YKT6 (UniProt O15498),inactive: -0.01
5,ZFP36L2 (UniProt P47974),inactive: 0.029
6,XPNPEP3 (UniProt Q9NQH7),inactive: -0.007
7,XRCC1 (UniProt P18887),inactive: -0.013
8,YAE1 (UniProt Q9NRH1),inactive: -0.012
9,XPO1 (UniProt O14980),inactive: 0.023
10,ZFYVE19 (UniProt Q96K21),inactive: 0.042
11,YIPF4 (UniProt Q9BSR8),inactive: -0.064
12,ZFYVE28 (UniProt Q9HCC9),inactive: -0.131
13,ZC2HC1A (UniProt Q96GY0),inactive: -0.046
14,XPO5 (UniProt Q9HAV4),inactive: -0.021
15,ZFC3H1 (UniProt O60293),inactive: 0.003
16,XRCC6 (UniProt P12956),inactive: 0.015
17,ZFYVE21 isoform 2 (UniProt Q9BQ24),inactive: 0.044
18,YOD1 (UniProt Q5VVQ6),inactive: -0.004
19,YTHDF2 (UniProt Q9Y5A9),inactive: -0.012
